Patent publication US20100233095A1
These are yes or no findings as the source states them, for the method shown. Some entries that bind do so weakly or less than the wild type.

By UniProt entry, the sequences of proteins in these tests, tags left out. Residues count along the entry.
UniProt P05067, residues 672-713: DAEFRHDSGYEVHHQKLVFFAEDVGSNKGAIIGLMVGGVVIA

Molecular target: soluble Aβ oligomers (UniProt P05067)
Test: pyrene fluorescence, as for FIG. 12 (data not shown)

binding: binds
B1: Peptide 38 (SEQ ID NO:3) (peptide)
peptide: KLVFFAEDAAAAKHAIIELMK
modifications: pyrene at each terminus (di-pyrene labeled); C-terminal amide
